According to PMC5852242:
These are yes or no findings as the source states them, for the method shown. Binding seen in cells or lysates may run through a third protein. A yes stands for co-enrichment or nearness to the bait. Other partners may have been found. Where a sequence is shown, tags or fusion partners need not be part of it.

The chains behind the UniProt entries cited, without tags or fusion partners.
UniProt P63104: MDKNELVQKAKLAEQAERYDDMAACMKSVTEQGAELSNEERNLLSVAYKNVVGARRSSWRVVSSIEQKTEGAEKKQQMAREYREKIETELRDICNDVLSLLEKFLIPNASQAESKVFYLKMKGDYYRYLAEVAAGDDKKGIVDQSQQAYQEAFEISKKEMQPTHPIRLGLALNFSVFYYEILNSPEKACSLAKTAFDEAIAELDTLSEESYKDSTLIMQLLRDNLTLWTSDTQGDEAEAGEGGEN

T1: Flag-tagged TRIP13 (Thyroid hormone Receptor Interactor 13) (UniProt Q15645)
T1 sequence: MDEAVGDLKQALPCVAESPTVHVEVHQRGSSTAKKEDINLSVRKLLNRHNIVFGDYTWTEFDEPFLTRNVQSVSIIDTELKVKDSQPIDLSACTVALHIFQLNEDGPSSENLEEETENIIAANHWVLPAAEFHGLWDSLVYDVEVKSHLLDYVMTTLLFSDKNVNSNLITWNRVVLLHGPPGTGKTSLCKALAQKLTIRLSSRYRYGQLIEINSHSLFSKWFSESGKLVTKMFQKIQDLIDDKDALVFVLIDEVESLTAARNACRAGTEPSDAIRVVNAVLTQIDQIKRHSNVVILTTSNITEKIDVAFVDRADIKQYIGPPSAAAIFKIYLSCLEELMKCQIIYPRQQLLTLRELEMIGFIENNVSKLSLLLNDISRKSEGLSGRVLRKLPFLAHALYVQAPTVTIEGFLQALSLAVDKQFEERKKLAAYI


Target: T1, Flag-tagged TRIP13 (Thyroid hormone Receptor Interactor 13)
Assay: affinity purification with mass spectrometry; lysate of HCT116-Flag-TRIP13 cells or control; TRIP13 complex proteins purified with anti-Flag M2 magnetic beads, eluted in loading buffer, SDS-PAGE, Coomassie staining, nano-LC-MS/MS

Row | Molecule | binding
1 | YWHAZ (14-3-3ζ) (from UniProt P63104 1-245) | binds
2 | YWHAQ (protein, UniProt P27348 1-245) MEKTELIQKAKLAEQAERYDDMATCMKAVTEQGAELSNEERNLLSVAYKNVVGGRRSAWRVISSIEQKTDTSDKKLQLIKDYREKVESELRSICTTVLELLDKYLIANATNPESKVFYLKMKGDYFRYLAEVACGDDRKQTIDNSQGAYQEAFDISKKEMQPTHPIRLGLALNFSVFYYEILNNPELACTLAKTAFDEAIAELDTLNEDSYKDSTLIMQLLRDNLTLWTSDSAGEECDAAEGAEN | binds
